# In the supplement of paper PMC6411743:
# ± gives the standard deviation of the averaged measurements. Only a part is listed here, and it is no random draw.
# What was measured:
# Test in all cases: NP40-soluble protein abundance relative to vehicle (solubility fold change) (ratio); higher = more soluble protein in presence of ATP
# RRP15 = target: T1, RRP15 (UniProt Q9Y3B9)
# T1 sequence (whole entry): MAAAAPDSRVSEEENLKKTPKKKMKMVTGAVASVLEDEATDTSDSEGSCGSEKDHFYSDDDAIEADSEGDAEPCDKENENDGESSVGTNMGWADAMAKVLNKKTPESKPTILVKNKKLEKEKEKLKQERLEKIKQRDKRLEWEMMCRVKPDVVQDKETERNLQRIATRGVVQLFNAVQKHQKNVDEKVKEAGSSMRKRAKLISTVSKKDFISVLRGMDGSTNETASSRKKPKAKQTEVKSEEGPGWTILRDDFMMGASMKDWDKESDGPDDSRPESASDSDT
# In short: (§1)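 Eight concentrations, 0.1 to 10 mM, were tested on Jurkat crude lysate for 10 min at room temperature and then 3 min at 37 °C, in three independent experiments. The lysate was solubilised with 0.8% NP40 and benzonase, ultracentrifuged, and the supernatant TMT-labelled for LC-MS/MS. Each value is the fold change against the detergent-processed vehicle in its own replicate, from vsn-normalised intensities.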
# [1] = target: T2, UniProt Q9Y2K1 and related entries
# T2 sequence (whole entry): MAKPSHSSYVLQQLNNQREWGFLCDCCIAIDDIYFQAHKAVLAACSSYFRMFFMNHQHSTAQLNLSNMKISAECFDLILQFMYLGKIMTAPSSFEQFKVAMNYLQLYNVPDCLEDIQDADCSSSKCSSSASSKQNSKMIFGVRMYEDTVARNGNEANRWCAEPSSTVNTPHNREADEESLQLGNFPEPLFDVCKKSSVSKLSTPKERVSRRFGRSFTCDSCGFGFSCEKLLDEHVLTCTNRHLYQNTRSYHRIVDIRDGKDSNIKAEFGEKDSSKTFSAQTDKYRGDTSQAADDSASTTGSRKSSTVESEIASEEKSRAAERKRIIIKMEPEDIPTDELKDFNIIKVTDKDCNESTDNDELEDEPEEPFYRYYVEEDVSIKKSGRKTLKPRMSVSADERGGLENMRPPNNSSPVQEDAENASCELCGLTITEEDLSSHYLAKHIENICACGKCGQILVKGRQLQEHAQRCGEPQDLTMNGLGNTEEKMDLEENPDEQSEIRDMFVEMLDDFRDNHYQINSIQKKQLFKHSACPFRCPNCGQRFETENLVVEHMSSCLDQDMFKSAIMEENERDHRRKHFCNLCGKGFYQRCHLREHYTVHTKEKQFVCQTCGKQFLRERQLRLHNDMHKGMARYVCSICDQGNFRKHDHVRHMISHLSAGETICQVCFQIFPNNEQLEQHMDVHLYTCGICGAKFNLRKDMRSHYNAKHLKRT
# In short: as §1
# [2] = target: T3, UniProt Q9Y394 and related entries
# T3 sequence (whole entry): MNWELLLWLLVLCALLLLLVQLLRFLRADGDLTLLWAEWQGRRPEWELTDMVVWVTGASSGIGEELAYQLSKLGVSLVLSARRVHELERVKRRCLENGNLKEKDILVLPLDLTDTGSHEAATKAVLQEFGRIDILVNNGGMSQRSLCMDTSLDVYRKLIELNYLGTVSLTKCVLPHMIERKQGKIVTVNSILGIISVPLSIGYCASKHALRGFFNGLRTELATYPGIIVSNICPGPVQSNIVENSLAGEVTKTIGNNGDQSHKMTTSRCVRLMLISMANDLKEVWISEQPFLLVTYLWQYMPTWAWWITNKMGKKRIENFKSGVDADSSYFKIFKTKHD
# In short: as §1
# [3] = target: T4, UniProt Q9Y3Y2 and related entries
# T4 sequence (whole entry): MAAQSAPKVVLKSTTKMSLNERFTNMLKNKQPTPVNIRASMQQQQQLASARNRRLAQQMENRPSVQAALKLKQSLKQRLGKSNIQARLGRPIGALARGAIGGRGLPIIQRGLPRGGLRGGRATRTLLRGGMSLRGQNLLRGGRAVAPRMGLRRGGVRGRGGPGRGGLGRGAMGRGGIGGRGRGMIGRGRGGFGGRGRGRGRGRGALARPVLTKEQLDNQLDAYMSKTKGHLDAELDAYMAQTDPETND
# In short: as §1
# [4] = target: T5, UniProt Q9Y4C2 and related entries
# T5 sequence (whole entry): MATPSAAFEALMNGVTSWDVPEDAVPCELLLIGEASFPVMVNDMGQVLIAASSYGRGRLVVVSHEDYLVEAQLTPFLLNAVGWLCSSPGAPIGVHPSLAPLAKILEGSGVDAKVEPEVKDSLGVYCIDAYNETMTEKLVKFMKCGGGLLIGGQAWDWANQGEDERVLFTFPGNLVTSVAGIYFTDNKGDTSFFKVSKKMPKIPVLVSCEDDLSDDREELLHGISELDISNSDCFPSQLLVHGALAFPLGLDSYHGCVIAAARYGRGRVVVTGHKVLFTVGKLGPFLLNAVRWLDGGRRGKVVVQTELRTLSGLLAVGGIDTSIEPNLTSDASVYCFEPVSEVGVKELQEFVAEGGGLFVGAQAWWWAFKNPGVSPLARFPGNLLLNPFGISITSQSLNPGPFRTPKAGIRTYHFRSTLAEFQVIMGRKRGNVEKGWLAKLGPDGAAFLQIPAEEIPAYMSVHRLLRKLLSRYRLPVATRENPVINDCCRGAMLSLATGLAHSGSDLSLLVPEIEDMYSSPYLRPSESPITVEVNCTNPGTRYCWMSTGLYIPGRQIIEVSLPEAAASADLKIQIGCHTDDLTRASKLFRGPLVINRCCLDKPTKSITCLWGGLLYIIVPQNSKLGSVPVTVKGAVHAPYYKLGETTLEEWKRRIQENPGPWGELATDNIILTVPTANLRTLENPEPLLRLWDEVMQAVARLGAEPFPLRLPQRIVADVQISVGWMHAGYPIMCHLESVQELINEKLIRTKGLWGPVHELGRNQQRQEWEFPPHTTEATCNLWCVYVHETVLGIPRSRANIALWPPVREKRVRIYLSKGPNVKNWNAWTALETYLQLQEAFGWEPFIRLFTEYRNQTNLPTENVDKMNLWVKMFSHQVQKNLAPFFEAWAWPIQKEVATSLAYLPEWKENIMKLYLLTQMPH
# In short: as §1
# [5] = target: T6, UniProt Q9Y4W2 and related entries
# T6 sequence (whole entry): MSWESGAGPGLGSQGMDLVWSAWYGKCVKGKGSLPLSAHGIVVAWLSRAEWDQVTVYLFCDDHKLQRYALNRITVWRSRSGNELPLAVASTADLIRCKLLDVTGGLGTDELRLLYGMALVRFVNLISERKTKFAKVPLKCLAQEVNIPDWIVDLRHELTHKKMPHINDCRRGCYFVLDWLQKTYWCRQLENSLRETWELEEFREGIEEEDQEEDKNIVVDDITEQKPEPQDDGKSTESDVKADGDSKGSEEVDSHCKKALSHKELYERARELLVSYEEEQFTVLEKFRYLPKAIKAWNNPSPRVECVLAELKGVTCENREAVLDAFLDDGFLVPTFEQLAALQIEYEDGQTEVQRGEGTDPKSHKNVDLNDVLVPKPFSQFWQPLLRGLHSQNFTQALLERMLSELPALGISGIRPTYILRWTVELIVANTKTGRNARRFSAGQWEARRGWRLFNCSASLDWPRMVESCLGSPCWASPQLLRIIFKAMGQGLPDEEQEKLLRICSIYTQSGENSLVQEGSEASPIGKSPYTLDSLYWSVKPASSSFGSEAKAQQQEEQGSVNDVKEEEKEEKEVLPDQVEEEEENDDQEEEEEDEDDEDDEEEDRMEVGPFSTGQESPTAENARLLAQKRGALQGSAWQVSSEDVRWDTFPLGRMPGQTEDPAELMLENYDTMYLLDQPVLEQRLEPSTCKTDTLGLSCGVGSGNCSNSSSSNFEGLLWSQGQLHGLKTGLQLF
# In short: as §1
# ZHX2 = target: T7, ZHX2 (UniProt Q9Y6X8)
# T7 sequence (whole entry): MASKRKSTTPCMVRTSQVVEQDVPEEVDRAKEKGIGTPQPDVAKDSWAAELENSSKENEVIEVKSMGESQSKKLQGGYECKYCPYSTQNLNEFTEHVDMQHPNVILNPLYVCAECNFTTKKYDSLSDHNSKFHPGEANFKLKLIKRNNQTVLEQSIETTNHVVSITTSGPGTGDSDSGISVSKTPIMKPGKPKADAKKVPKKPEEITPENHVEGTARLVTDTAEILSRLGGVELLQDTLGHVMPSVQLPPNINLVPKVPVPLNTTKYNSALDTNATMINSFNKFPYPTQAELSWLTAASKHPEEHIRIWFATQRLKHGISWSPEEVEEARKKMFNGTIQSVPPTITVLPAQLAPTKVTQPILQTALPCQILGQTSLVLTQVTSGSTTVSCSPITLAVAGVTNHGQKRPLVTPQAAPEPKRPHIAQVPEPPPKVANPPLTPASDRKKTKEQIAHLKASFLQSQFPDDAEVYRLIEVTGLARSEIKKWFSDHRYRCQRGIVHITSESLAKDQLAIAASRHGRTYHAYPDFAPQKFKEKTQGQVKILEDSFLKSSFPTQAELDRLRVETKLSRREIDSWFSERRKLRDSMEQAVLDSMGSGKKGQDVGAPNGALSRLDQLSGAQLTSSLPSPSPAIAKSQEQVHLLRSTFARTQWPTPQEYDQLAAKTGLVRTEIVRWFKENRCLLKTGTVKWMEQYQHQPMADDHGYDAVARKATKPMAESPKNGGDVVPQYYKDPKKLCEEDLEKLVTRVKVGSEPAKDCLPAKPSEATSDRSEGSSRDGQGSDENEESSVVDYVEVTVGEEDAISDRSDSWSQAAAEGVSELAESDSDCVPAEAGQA
# In short: as §1
smiles,measurement,setting,value
Nc1ncnc2c1ncn2[C@@H]1O[C@H](COP(=O)(O)OP(=O)(O)OP(=O)(O)O)[C@@H](O)[C@H]1O [adenosine triphosphate],NP40-soluble protein abundance,RRP15; concentration: 6mM,1.2 ± 0.087
same,NP40-soluble protein abundance,RRP15; concentration: 8mM,1.24 ± 0.11
same,NP40-soluble protein abundance,RRP15; concentration: 10mM,1.26 ± 0.088
same,NP40-soluble protein abundance,[1]; concentration: 1mM,1.07 ± 0.046
same,NP40-soluble protein abundance,[1]; concentration: 2mM,1.13 ± 0.051
same,NP40-soluble protein abundance,[1]; concentration: 4mM,1.25 ± 0.078
same,NP40-soluble protein abundance,[1]; concentration: 6mM,1.27 ± 0.093
same,NP40-soluble protein abundance,[1]; concentration: 8mM,1.17 ± 0.09
same,NP40-soluble protein abundance,[1]; concentration: 10mM,1.23 ± 0.039
same,NP40-soluble protein abundance,[2]; concentration: 1mM,1.012 ± 0.0016
same,NP40-soluble protein abundance,[2]; concentration: 2mM,1.02 ± 0.011
same,NP40-soluble protein abundance,[2]; concentration: 4mM,0.983 ± 0.021
same,NP40-soluble protein abundance,[2]; concentration: 6mM,0.947 ± 0.046
same,NP40-soluble protein abundance,[2]; concentration: 8mM,0.994 ± 0.02
same,NP40-soluble protein abundance,[2]; concentration: 10mM,0.989 ± 0.015
same,NP40-soluble protein abundance,[3]; concentration: 1mM,1.06 ± 0.1
same,NP40-soluble protein abundance,[3]; concentration: 2mM,1.09 ± 0.062
same,NP40-soluble protein abundance,[3]; concentration: 4mM,1.23 ± 0.074
same,NP40-soluble protein abundance,[3]; concentration: 6mM,1.38 ± 0.18
same,NP40-soluble protein abundance,[3]; concentration: 8mM,1.39 ± 0.039
same,NP40-soluble protein abundance,[3]; concentration: 10mM,1.62 ± 0.16
same,NP40-soluble protein abundance,[4]; concentration: 1mM,1.1 ± 0.054
same,NP40-soluble protein abundance,[4]; concentration: 2mM,0.969 ± 0.033
same,NP40-soluble protein abundance,[4]; concentration: 4mM,1.03 ± 0.07
same,NP40-soluble protein abundance,[4]; concentration: 6mM,0.9585 ± 0.0092
same,NP40-soluble protein abundance,[4]; concentration: 8mM,0.99 ± 0.052
same,NP40-soluble protein abundance,[4]; concentration: 10mM,0.971 ± 0.025
same,NP40-soluble protein abundance,[5]; concentration: 1mM,0.924 ± 0.087
same,NP40-soluble protein abundance,[5]; concentration: 2mM,0.908 ± 0.027
same,NP40-soluble protein abundance,[5]; concentration: 4mM,0.898 ± 0.04
same,NP40-soluble protein abundance,[5]; concentration: 6mM,0.917 ± 0.1
same,NP40-soluble protein abundance,[5]; concentration: 8mM,0.91 ± 0.051
same,NP40-soluble protein abundance,[5]; concentration: 10mM,0.951 ± 0.057
same,NP40-soluble protein abundance,ZHX2; concentration: 1mM,0.961 ± 0.083
same,NP40-soluble protein abundance,ZHX2; concentration: 2mM,0.96 ± 0.069
same,NP40-soluble protein abundance,ZHX2; concentration: 4mM,0.984 ± 0.047
same,NP40-soluble protein abundance,ZHX2; concentration: 6mM,1.02 ± 0.049
same,NP40-soluble protein abundance,ZHX2; concentration: 8mM,0.948 ± 0.015
same,NP40-soluble protein abundance,ZHX2; concentration: 10mM,0.962 ± 0.019

# Quoted at random: two records from the list.
smiles,measurement,setting,value
Nc1ncnc2c1ncn2[C@@H]1O[C@H](COP(=O)(O)OP(=O)(O)OP(=O)(O)O)[C@@H](O)[C@H]1O [adenosine triphosphate],NP40-soluble protein abundance,ZHX2; concentration: 8mM,0.948 ± 0.015
same,NP40-soluble protein abundance,ZHX2; concentration: 4mM,0.984 ± 0.047
